Paper PMC9613458
Results are given in words; binding and its absence hold for the method and conditions named. In cells and extracts the contact can be indirect. Some entries that bind do so weakly or less than the wild type. Where a sequence is shown, tags or fusion partners need not be part of it.

By UniProt entry, the sequences of proteins in these tests, tags left out.
UniProt Q9UJV9: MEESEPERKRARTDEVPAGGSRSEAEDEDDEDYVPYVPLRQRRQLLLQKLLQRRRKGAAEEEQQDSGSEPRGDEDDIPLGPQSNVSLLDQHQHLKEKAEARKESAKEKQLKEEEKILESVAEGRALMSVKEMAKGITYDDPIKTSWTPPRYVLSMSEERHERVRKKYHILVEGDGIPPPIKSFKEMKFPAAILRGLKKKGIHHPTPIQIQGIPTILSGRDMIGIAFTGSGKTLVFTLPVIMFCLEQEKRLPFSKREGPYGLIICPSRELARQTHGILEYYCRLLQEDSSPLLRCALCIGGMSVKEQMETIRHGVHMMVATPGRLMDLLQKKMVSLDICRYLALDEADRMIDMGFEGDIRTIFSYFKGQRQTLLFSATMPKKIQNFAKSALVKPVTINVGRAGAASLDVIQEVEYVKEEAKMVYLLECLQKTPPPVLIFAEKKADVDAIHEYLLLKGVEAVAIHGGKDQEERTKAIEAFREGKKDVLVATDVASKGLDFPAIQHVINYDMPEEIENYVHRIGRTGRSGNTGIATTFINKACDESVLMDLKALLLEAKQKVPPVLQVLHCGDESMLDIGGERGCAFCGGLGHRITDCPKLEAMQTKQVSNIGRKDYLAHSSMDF
UniProt Q99459: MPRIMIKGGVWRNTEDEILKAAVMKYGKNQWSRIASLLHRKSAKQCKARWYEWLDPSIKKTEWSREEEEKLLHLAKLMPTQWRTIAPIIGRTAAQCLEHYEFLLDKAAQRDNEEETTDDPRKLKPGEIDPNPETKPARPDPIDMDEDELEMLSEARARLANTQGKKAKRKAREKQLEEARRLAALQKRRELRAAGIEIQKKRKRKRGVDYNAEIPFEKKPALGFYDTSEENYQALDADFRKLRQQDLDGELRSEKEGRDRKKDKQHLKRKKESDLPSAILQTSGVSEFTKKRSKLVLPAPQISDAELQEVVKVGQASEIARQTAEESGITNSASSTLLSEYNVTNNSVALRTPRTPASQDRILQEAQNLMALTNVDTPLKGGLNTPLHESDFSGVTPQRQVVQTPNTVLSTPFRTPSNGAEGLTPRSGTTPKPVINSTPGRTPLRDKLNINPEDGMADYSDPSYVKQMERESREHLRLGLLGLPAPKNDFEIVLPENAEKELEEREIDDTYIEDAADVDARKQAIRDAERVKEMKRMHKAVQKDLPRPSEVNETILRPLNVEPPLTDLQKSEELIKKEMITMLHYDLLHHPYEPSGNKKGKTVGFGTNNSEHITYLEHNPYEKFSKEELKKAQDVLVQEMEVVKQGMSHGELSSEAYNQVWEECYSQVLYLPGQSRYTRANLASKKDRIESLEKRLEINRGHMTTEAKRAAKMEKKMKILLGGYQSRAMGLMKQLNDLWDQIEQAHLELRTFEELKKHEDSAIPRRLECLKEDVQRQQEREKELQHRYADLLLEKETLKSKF

Molecular target: FLAG-tagged DDX41 (human) (UniProt Q9UJV9)
Experiment: co-IP; Myc-tagged NTC components expressed with FLAG-tagged DDX41 in HEK293FT cells; immunoprecipitation with anti-FLAG antibody; blots with anti-FLAG, anti-Myc

Molecule | binding
Myc-tagged CDC5L (from UniProt Q99459 1-802) | binds
Myc-tagged Yju2 (CCDC94) (protein, UniProt Q9BW85 1-323) MSERKVLNKYYPPDFDPSKIPKLKLPKDRQYVVRLMAPFNMRCKTCGEYIYKGKKFNARKETVQNEVYLGLPIFRFYIKCTRCLAEITFKTDPENTDYTMEHGATRNFQAEKLLEEEEKRVQKEREDEELNNPMKVLENRTKDSKLEMEVLENLQELKDLNQRQAHVDFEAMLRQHRLSEEERRRQQQEEDEQETAALLEEARKRRLLEDSDSEDEAAPSPLQPALRPNPTAILDEAPKPKRKVEVWEQSVGSLGSRPPLSRLVVVKKAKADPDCSNGQPQAAPTPGAPQNRKEANPTPLTPGASSLSQLGAYLDSDDSNGSN | binds

Results, then the molecule that gave them:

binding | Molecule
binds | Myc-tagged CWC25 (protein, UniProt Q9NXE8 1-425) MGGGDLNLKKSWHPQTLRNVEKVWKAEQKHEAERKKIEELQRELREERAREEMQRYAEDVGAVKKKEEKLDWMYQGPGGMVNRDEYLLGRPIDKYVFEKMEEKEAGCSSETGLLPGSIFAPSGANSLLDMASKIREDPLFIIRKKEEEKKREVLNNPVKMKKIKELLQMSLEKKEKKKKKEKKKKHKKHKHRSSSSDRSSSEDEHSAGRSQKKMANSSPVLSKVPGYGLQVRNSDRNQGLQGPLTAEQKRGHGMKNHSRSRSSSHSPPRHASKKSTREAGSRDRRSRSLGRRSRSPRPSKLHNSKVNRRETGQTRSPSPKKEVYQRRHAPGYTRKLSAEELERKRQEMMENAKWREEERLNILKRHAKDEEREQRLEKLDSRDGKFIHRMKLESASTSSLEDRVKRNIYSLQRTSVALEKNFMKR
binds weakly | Myc-tagged CWC27 (protein, UniProt Q6UX04 1-472) MSNIYIQEPPTNGKVLLKTTAGDIDIELWSKEAPKACRNFIQLCLEAYYDNTIFHRVVPGFIVQGGDPTGTGSGGESIYGAPFKDEFHSRLRFNRRGLVAMANAGSHDNGSQFFFTLGRADELNNKHTIFGKVTGDTVYNMLRLSEVDIDDDERPHNPHKIKSCEVLFNPFDDIIPREIKRLKKEKPEEEVKKLKPKGTKNFSLLSFGEEAEEEEEEVNRVSQSMKGKSKSSHDLLKDDPHLSSVPVVESEKGDAPDLVDDGEDESAEHDEYIDGDEKNLMRERIAKKLKKDTSANVKSAGEGEVEKKSVSRSEELRKEARQLKRELLAAKQKKVENAAKQAEKRSEEEEAPPDGAVAEYRREKQKYEALRKQQSKKGTSREDQTLALLNQFKSKLTQAIAETPENDIPETEVEDDEGWMSHVLQFEDKSRKVKDASMQDSDTFEIYDPRNPVNKRRREESKKLMREKKERR
binds | Myc-tagged CWC22 (protein, UniProt Q9HCG8 1-908) MKSSVAQIKPSSGHDRRENLNSYQRNSSPEDRYEEQERSPRDRDYFDYSRSDYEHSRRGRSYDSSMESRNRDREKRRERERDTDRKRSRKSPSPGRRNPETSVTQSSSAQDEPATKKKKDELDPLLTRTGGAYIPPAKLRMMQEQITDKNSLAYQRMSWEALKKSINGLINKVNISNISIIIQELLQENIVRGRGLLSRSVLQAQSASPIFTHVYAALVAIINSKFPQIGELILKRLILNFRKGYRRNDKQLCLTASKFVAHLINQNVAHEVLCLEMLTLLLERPTDDSVEVAIGFLKECGLKLTQVSPRGINAIFERLRNILHESEIDKRVQYMIEVMFAVRKDGFKDHPIILEGLDLVEEDDQFTHMLPLEDDYNPEDVLNVFKMDPNFMENEEKYKAIKKEILDEGDTDSNTDQDAGSSEEDEEEEEEEGEEDEEGQKVTIHDKTEINLVSFRRTIYLAIQSSLDFEECAHKLLKMEFPESQTKELCNMILDCCAQQRTYEKFFGLLAGRFCMLKKEYMESFEGIFKEQYDTIHRLETNKLRNVAKMFAHLLYTDSLPWSVLECIKLSEETTTSSSRIFVKIFFQELCEYMGLPKLNARLKDETLQPFFEGLLPRDNPRNTRFAINFFTSIGLGGLTDELREHLKNTPKVIVAQKPDVEQNKSSPSSSSSASSSSESDSSDSDSDSSDSSSESSSEESDSSSISSHSSASANDVRKKGHGKTRSKEVDKLIRNQQTNDRKQKERRQEHGHQETRTERERRSEKHRDQNSSGSNWRDPITKYTSDKDVPSERNNYSRVANDRDQEMHIDLENKHGDPKKKRGERRNSFSENEKHTHRIKDSENFRRKDRSKSKEMNRKHSGSRSDEDRYQNGAERRWEKSSRYSEQSRESKKNQDRRREKSPAKQK
